## Results of single-concentration screens

By UniProt entry, the sequences of proteins in these tests, tags left out. Residues count along the entry.
UniProt I6X8D2, whole entry: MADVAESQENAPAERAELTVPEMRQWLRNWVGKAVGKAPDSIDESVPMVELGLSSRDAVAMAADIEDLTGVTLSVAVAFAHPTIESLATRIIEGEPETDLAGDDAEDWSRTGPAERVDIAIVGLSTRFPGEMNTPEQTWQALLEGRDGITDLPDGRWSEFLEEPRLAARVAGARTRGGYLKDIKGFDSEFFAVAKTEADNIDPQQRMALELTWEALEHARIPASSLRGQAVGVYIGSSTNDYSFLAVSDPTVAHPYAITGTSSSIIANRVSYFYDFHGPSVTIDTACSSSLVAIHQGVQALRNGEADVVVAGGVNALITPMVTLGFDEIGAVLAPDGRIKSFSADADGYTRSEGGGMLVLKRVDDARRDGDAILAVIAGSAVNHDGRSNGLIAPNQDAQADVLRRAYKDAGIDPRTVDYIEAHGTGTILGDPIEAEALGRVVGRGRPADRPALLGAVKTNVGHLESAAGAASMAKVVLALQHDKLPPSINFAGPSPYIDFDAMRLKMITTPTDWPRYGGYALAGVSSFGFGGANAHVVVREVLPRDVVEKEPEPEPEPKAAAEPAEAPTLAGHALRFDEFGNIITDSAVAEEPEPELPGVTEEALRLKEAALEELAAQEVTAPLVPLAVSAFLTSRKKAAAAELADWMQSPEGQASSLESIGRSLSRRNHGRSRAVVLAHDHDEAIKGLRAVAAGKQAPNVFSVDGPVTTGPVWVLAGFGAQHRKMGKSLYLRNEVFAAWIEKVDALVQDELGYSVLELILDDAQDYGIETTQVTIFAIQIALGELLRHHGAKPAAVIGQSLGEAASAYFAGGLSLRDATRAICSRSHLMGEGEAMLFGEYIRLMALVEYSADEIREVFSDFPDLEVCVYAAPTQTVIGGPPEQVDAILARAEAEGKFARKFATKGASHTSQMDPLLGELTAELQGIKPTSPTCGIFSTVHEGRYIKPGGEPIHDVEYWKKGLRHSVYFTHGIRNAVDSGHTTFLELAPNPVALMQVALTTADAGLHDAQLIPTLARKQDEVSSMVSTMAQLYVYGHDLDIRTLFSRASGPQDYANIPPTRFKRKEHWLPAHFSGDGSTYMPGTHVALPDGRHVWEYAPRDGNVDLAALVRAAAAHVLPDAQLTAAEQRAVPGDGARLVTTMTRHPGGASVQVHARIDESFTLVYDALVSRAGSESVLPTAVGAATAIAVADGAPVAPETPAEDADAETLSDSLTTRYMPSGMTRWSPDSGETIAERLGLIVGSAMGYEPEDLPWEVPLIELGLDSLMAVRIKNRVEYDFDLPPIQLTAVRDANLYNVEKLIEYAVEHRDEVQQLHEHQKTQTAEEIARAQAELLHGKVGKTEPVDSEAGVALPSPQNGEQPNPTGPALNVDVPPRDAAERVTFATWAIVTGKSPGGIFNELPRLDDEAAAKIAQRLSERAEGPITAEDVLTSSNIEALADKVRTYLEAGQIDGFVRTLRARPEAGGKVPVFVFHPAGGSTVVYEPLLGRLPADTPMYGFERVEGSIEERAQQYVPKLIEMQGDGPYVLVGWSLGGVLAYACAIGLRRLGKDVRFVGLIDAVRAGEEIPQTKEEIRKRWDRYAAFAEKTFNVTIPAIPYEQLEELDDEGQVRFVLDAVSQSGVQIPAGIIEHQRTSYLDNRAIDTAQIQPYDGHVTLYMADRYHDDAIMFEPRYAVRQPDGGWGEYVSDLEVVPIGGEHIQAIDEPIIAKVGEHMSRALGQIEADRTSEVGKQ
UniProt Q8IDJ8, 1-583: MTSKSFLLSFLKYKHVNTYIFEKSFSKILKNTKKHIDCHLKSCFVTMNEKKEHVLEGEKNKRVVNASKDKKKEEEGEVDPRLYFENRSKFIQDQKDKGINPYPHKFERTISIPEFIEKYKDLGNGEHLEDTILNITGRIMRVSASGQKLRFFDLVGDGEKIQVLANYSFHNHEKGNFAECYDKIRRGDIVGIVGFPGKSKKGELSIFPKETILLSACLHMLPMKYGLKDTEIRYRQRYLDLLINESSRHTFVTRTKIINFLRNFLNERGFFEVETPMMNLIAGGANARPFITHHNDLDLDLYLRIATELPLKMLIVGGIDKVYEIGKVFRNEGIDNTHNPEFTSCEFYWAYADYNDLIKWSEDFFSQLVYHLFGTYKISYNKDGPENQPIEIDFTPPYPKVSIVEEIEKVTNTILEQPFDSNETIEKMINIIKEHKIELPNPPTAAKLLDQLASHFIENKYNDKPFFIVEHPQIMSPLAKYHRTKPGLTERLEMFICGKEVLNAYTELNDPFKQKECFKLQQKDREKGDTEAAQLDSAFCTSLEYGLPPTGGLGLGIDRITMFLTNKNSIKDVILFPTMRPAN
UniProt P9WNZ1, whole entry: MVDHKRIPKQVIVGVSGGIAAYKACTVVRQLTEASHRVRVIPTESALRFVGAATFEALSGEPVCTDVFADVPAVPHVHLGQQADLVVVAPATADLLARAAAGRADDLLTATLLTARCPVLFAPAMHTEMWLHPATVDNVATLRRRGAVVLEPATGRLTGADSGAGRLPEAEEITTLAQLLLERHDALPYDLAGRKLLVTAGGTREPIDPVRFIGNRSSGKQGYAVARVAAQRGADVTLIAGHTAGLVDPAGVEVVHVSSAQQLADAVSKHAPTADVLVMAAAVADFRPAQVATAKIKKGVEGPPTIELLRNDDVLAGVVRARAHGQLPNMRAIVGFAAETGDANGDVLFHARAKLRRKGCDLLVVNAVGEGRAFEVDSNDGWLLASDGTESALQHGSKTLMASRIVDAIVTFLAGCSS

Toxoplasma: 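Assay of Toxoplasma gondii numbers, read through their beta-galactosidase reporter with a colour substrate. Compounds at 10 µM. The record gives no direction; the compounds picked for IC50 retests had high values, so higher reads as fewer parasites. About 67,000 compounds were tested under these conditions; 0.38% (about 260) showed 50% or more at least once.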
Pks13 thioesterase: 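Polyketide synthase Pks13, Mycobacterium tuberculosis (UniProt I6X8D2). Enzyme assay of the thioesterase domain of polyketide synthase 13; the read-out is not stated. Concentration: 30 µM. Higher reads as stronger inhibition (inferred from which compounds were picked for retests). Of about 67,000 compounds tested this way, about 300 (0.46%) reached 50% or more in at least one test.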
PfKRS1: 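Lysine-tRNA ligase, Plasmodium falciparum 3D7 (UniProt Q8IDJ8). Enzyme assay of the cytosolic lysyl-tRNA synthetase in 384-well plates, read by luminescence. Tested at 30 µM. Higher reads as stronger inhibition, judged from the few compounds that gave an IC50. Of about 69,000 compounds tested this way, about 49 (0.071%) reached 50% or more in at least one test.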
CoaBC: 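Coenzyme A biosynthesis protein CoaBC, Mycobacterium tuberculosis (UniProt P9WNZ1). Enzyme assay of CoaBC with a phosphate dye (Biomol Green) read at 650 nm. Concentration: 30 µM. Higher reads as stronger inhibition, judged from the few compounds that gave an IC50. Most strong results did not repeat in a second test. Size under these conditions: about 67,000 compounds, about 40 of them at 50% or above in at least one test.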

The filed quantity is “Percent Effect” (%).
How 0% and 100% were set is not recorded. Most values in the screen are low, and negative values occur.
Compounds were drawn at random from those tested, without regard to their results.

CCOC[C@]12COC[C@H]1CN(Cc1ccc3c(c1)OCO3)C2 read Pks13 thioesterase: -1.204%; PfKRS1: -0.3581%; CoaBC: 2.599%. Result for O=C(O)C(F)(F)F.[H][C@@]12COC[C@]1(COc1cccnc1)CN(C(=O)c1cc(C3CC3)on1)C2 was Toxoplasma: -18.5%. Result for CCC(=O)N1CCCCC1c1nc(O)c2c(n1)CN(C(=O)C1CC1)CC2 (configuration not stated) was Toxoplasma: 12.82%; Pks13 thioesterase: 14.46%; PfKRS1: 2.406%; CoaBC: -1.196%. With Cc1cc2c(C)cc(O)cc2c(=O)o1 the screen gave Toxoplasma: -2.355%; Pks13 thioesterase: -3.578%; PfKRS1: 2.105%; CoaBC: 4.912%. With O=S(=O)(N1CCCC1)N1CCc2sccc2C1 the screen gave Toxoplasma: -12.82%; Pks13 thioesterase: -6.922%; PfKRS1: 4.592%; CoaBC: 2.73%.

For CNC(=O)c1ccc(-c2ccccc2)n1C the result was Toxoplasma: 0.9604%; Pks13 thioesterase: -1.889%; PfKRS1: 4.402%; CoaBC: -6.452%. Cn1ccnc1C(=O)N1CCOC(Cc2ccc(Cl)cc2)C1 (configuration not stated) read Toxoplasma: -14.12%; Pks13 thioesterase: 4.275%; PfKRS1: 0.3456%; CoaBC: 3.893%. CCOC(C)c1noc(CN2CCN(Cc3ccno3)CC2)n1 (configuration not stated) gave Toxoplasma: -6.068%; Pks13 thioesterase: -0.9392%; PfKRS1: 2.377%; CoaBC: -0.9662%. With Clc1ccc(C2(CNC3=NCCN3)CCCCC2)cc1 the screen gave Pks13 thioesterase: -13.24%; PfKRS1: 4.211%; CoaBC: -21.93%. For COC(=O)Cn1c(=O)nc2n1C(=O)N(c1cccc(C)c1)C2 the result was Toxoplasma: -18.1%; Pks13 thioesterase: -23.45%; PfKRS1: 1.776%; CoaBC: -3.321%.

With Cc1cccc(CN2C[C@@H]3OCCN(CC(=O)N(C)C)[C@@H]3C2)c1 the screen gave Pks13 thioesterase: -10.98%; PfKRS1: 3.76%; CoaBC: 2.723%. COCC1CN(c2ccncn2)Cc2cnn(CC3CCCC3)c21 (configuration not stated) gave Pks13 thioesterase: -0.9252%; PfKRS1: 1.574%; CoaBC: -3.782%. Result for CN(Cc1nnc(-c2ccco2)o1)C1CCCN(c2cccnn2)C1 (configuration not stated) was Toxoplasma: -12.11%; Pks13 thioesterase: -12.11%; PfKRS1: -4.431%; CoaBC: 3.886%. For CC(C)c1noc(C(C)N2CCN(CCN3CCCC3=O)CC2)n1 (configuration not stated) the result was Toxoplasma: 2.24%; Pks13 thioesterase: -4.724%; PfKRS1: -0.1927%; CoaBC: 3.915%. For OCCN1CC2(CCN(c3ccccc3)C2)C1 the result was Pks13 thioesterase: -22.19%; PfKRS1: 1.954%; CoaBC: -40.37%.

For Cc1nc(C2CCCN2Cc2ccc(S(=O)(=O)N(C)C)o2)no1 (configuration not stated) the result was Toxoplasma: -0.07628%; Pks13 thioesterase: -12.45%; PfKRS1: 2.046%; CoaBC: 4.725%. CC(C)(C)n1ccc(C(=O)N2CCCC(c3ncc[nH]3)C2)c1 (configuration not stated) read Toxoplasma: 1.157%; Pks13 thioesterase: -9.71%; PfKRS1: 6.22%; CoaBC: -2.297%. For CCc1[nH]ncc1C(=O)N1CCCC(n2nc(C)nc2C)C1 (configuration not stated) the result was Toxoplasma: 23.68%; Pks13 thioesterase: -12.49%; PfKRS1: 2.04%; CoaBC: -1.554%. Result for CN1CCN(CC2CC2)C(=O)c2cnc(N3CCOCC3)nc21 was Toxoplasma: 2.117%; Pks13 thioesterase: 13.94%; PfKRS1: 3.444%; CoaBC: 3.735%.

Some entries from above, unchanged:

SMILES	Toxoplasma	Pks13 thioesterase	PfKRS1	CoaBC
CCc1[nH]ncc1C(=O)N1CCCC(n2nc(C)nc2C)C1 (configuration not stated)	23.68%	-12.49%	2.04%	-1.554%
CN1CCN(CC2CC2)C(=O)c2cnc(N3CCOCC3)nc21	2.117%	13.94%	3.444%	3.735%

Data taken from ChEMBL document CHEMBL3988442, “University of Dundee, Small-Polar-MMV Screening Library” (2021).